Library screen at single concentrations

From ChEMBL document CHEMBL3988442, “University of Dundee, Small-Polar-MMV Screening Library” (2021).

The filed quantity is “Percent Effect” (%). How 0% and 100% were set is not recorded. Most values in the screen are low, and negative values occur. Compounds were drawn at random from those tested, without regard to their results. Two or more numbers in one place are separate tests of the same structure; such repeats can differ widely.

Mtb glucose medium: 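Whole-cell growth test on Mycobacterium tuberculosis, read after 3 days in glucose-containing 7H9 medium; the read-out is not stated. Concentration: 50 µM. The record gives no direction; compounds that gave an IC50 in retests scored well above the rest, so higher reads as more growth inhibition. Of about 69,000 compounds tested this way, about 760 (1.1%) reached 50% or more in at least one test.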
Mtb cholesterol medium: 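Whole-cell growth test on Mycobacterium tuberculosis, read after 4 days in a medium based on cholesterol and the lipid DPPC; the read-out is not stated. Compounds at 50 µM. Direction is inferred from retests: higher values go with more growth inhibition. About 69,000 compounds were tested under these conditions; 0.54% (about 370) showed 50% or more at least once.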

With CSCC(=O)Nc1nccn1Cc1ccc(Br)cc1 the screen gave Mtb glucose medium: 5.144%; Mtb cholesterol medium: 15.48%.
With Cc1cc(CNC(=O)c2ccc(F)c(COCC3CC3)c2)no1 the screen gave Mtb glucose medium: 5.284% and 14.52%; Mtb cholesterol medium: 4.542%.
With Cc1cc(CN(Cc2cccs2)CC2CCCO2)on1 (centres unmarked) the screen gave Mtb glucose medium: 2.704%; Mtb cholesterol medium: -25.6%.
With CCN(CC)C(=O)CN(C)C(=O)c1ccc(-c2ccsc2)nc1C the screen gave Mtb glucose medium: -50.47%; Mtb cholesterol medium: -15.92%.
With c1cnnc(N2CCCC(NCc3cn4ccccc4n3)C2)c1 (centres unmarked) the screen gave Mtb glucose medium: -28.2%; Mtb cholesterol medium: -35.33%.
With Cc1cc(C)c(C(=O)NCCNc2ncnc3ccccc23)c(=O)[nH]1 the screen gave Mtb glucose medium: 18.94%; Mtb cholesterol medium: 15.86%.
With CC(C)OCCCNC(=O)Nc1cccc2ncccc12 the screen gave Mtb glucose medium: -6.893%; Mtb cholesterol medium: -5.064%.
With CN(C)CC1(O)CCCN(C(=O)Cc2ccc(Cl)c(Cl)c2)C1 (centres unmarked) the screen gave Mtb glucose medium: -23.96%; Mtb cholesterol medium: -0.4031% and -20.53%.
With O=C(CCc1nnc2ccccn2c1=O)NCc1cccnc1 the screen gave Mtb glucose medium: 20.94%; Mtb cholesterol medium: -13.75%.
With Cc1cc2c(=O)n(CCSc3ncn[nH]3)cnc2s1 the screen gave Mtb glucose medium: 0.32% and -21.15%; Mtb cholesterol medium: 8.363%.
With CC/C=C(/C)C(=O)NCc1ccnc(OC)c1 the screen gave Mtb glucose medium: 13.53%; Mtb cholesterol medium: 13.16%.
With O=C(N[C@H]1CCCC[C@@H]1O)c1ccc(-c2nc3ccccc3[nH]2)cc1 the screen gave Mtb glucose medium: -1.582%; Mtb cholesterol medium: 0.1702%.
With COCC(=O)N1CCCC(c2cccc(-n3ccnc3)n2)C1 (centres unmarked) the screen gave Mtb glucose medium: 9.581%; Mtb cholesterol medium: -6.198%.
With O=C(O)C(F)(F)F.O=C(O)c1c(-c2cccnc2)ncc2c1CCN(CC1CCOC1)C2 (centres unmarked) the screen gave Mtb glucose medium: -34.72%; Mtb cholesterol medium: -9.318%.
With O=C(O)C(F)(F)F.[H][C@@]12COC[C@]1([H])[C@H](NC(=O)c1cccn1C)CN2Cc1cccs1 the screen gave Mtb glucose medium: 9.968% and -3.544%; Mtb cholesterol medium: -3.224%.
With O=S(=O)(c1ccc(-c2nc3c([nH]2)CCNC3)cc1)N1CCCC1 the screen gave Mtb glucose medium: -9.887%; Mtb cholesterol medium: 1.225%.
With CCCC(C)NCc1cccnc1N1CCN(c2ccccn2)CC1 (centres unmarked) the screen gave Mtb glucose medium: 7.349% and 0.8375%; Mtb cholesterol medium: 2.878%.
With CC(Cn1ccnc1)NC(=O)N1CCCN(Cc2cccs2)CC1 (centres unmarked) the screen gave Mtb glucose medium: 29.01%; Mtb cholesterol medium: 11.39%.
With O=C(CN1CCOC(Cn2cccn2)C1)Nc1nncs1 (centres unmarked) the screen gave Mtb glucose medium: 3.648%; Mtb cholesterol medium: 9.989%.
With c1csc(-c2nc(CN3CCOC(Cn4cncn4)C3)cs2)c1 (centres unmarked) the screen gave Mtb glucose medium: 4.713%; Mtb cholesterol medium: -10.68%.
With CO[C@@H]1CCN(S(=O)(=O)c2cn(C)cn2)[C@H]1Cc1ccncc1.O=C(O)C(F)(F)F the screen gave Mtb glucose medium: 0.1014% and -7.327%; Mtb cholesterol medium: -7.525%.
With [H][C@]12CC[C@@]3(N=C(CC)NC3=O)[C@@]1([H])CN(C(=O)NCC1CCCCC1)C2 the screen gave Mtb glucose medium: 22.07%; Mtb cholesterol medium: -0.2033%.
With CCOC(=O)C1(Cc2cccc(OC)c2)CCN(Cc2ncc[nH]2)CC1 the screen gave Mtb glucose medium: 8.576% and 16.19%; Mtb cholesterol medium: 18.87%.
With COCC(=O)N1CCC2(CC1)CN(S(C)(=O)=O)Cc1ccccc1O2 the screen gave Mtb glucose medium: -6.079%; Mtb cholesterol medium: 0.4582% and -8.929%.
With O=C(c1n[nH]c(=O)c2ccccc12)N1CCCC1Cn1cccn1 (centres unmarked) the screen gave Mtb glucose medium: -2.744%; Mtb cholesterol medium: -28.61%.
With Cc1cc(N2CCCC3(CN(C)C(=O)O3)C2)c2cc3c(cc2n1)OCO3 (centres unmarked) the screen gave Mtb glucose medium: 6.276%; Mtb cholesterol medium: -28.41%.
With CC(C)OC[C@H]1CCC[C@]12CN(S(=O)(=O)C1CC1)CCO2 the screen gave Mtb glucose medium: 2.708% and -24.92%; Mtb cholesterol medium: -13.34%.

Once more, the final 3:

- O=C(c1n[nH]c(=O)c2ccccc12)N1CCCC1Cn1cccn1 (centres unmarked) : Mtb glucose medium: -2.744%; Mtb cholesterol medium: -28.61%
- Cc1cc(N2CCCC3(CN(C)C(=O)O3)C2)c2cc3c(cc2n1)OCO3 (centres unmarked) : Mtb glucose medium: 6.276%; Mtb cholesterol medium: -28.41%
- CC(C)OC[C@H]1CCC[C@]12CN(S(=O)(=O)C1CC1)CCO2 : Mtb glucose medium: 2.708% and -24.92%; Mtb cholesterol medium: -13.34%